The values that follow come from patent US4737500A, “1-substituted-4-(thiazolyl-2-)-piperazines, -piperidines and -tetrahydropyridines useful as anxiolytic, psychogeriatric, antidepressant and antischizophrenic agents” (priority 1985, dated 1988).

What is called IC50 is the concentration that gives 50% inhibition. A lower IC50 goes with greater potency in that assay.

The assay deals with T1, 5HT-1A-binding sites in the pig cortex (Sus scrofa, UniProt A0A4X1UTF5).
T1 construct: from tissue; host or cells: pig cortex
T1 sequence (A0A4X1UTF5 1-422): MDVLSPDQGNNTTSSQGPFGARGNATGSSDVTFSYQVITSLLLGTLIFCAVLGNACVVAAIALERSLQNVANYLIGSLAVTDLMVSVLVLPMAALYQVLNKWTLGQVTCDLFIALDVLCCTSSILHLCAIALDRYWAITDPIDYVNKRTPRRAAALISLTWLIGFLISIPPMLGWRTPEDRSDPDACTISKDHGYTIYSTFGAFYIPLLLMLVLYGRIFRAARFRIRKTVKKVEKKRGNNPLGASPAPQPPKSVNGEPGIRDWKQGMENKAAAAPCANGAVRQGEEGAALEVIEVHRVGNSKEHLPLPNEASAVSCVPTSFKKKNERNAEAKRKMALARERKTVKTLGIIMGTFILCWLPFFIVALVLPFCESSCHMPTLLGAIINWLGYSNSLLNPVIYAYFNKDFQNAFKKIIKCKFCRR
The assay can be described thus: 5HT-1A-binding affinity test, binding of 3H-8-hydroxy-2-(di-n-propylamino)-tetraline (3H-PAT).

Consider `O=c1n(CCCN2CCN(c3cccc(Cl)c3)CC2)nc2ccccn12` [trazodone], for which the IC50 lay within 10 to 400 nM.
